Results from US20240352105A1, “COMPOSITIONS AND METHODS FOR NEUTRALIZING ANTIGENS” (PACAGEN, INC, priority 2023, published 2024).
Results are given in words; binding and its absence hold for the method and conditions named. Some entries that bind do so weakly or less than the wild type. For some assays here: Sequences can lack the tags named with a protein.

By UniProt entry, the sequences of proteins in these tests, tags left out. Residues count along the entry.
UniProt O18873, residues 19-174: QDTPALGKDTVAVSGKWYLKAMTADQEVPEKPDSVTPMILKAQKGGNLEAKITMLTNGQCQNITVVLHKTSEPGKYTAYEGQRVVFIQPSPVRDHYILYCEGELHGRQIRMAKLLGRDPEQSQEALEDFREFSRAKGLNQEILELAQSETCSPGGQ

T1: recombinant His-tagged Fel D1 (cat) (UniProt P30438+P30440)
T1 sequence (looked up) 1: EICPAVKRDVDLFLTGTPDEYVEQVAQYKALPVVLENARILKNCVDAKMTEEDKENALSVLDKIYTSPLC
T1 sequence (looked up) 2: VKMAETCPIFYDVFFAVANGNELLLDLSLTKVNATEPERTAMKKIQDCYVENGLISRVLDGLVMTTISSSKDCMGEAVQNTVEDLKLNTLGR


Target: recombinant His-tagged Can f1 (dog (Canis familiaris)) (UniProt O18873)
Experiment: ELISA, antigen coated

| binding | Binder |
| --- | --- |
| binds | SDAB22112-2-B06 (VHH, anti-Can f1 alpaca VHH) VHH: QVQLVESGGGLVQPGGSLRLSCAASGFTFRLAAMGWYRQAPEKEREWVASITGPGTDTNYADSVKGRFTVSRDNAKNTVYLQMNSLKPEDTAVYYCRGMGYWGKGTLVTVSS |
| binds | SDAB22112-1-D12-3 (VHH, anti-Can f1 alpaca VHH) VHH: QVQLVESGGGLVQPGGSLRLSCAASGFTFSNYGMSWVRQAPGKGLEWVSDVNSSGSRRFYVDSVKGRFTISRDNAKNTVFLQMNSLKPEDSAVYYCVKLAEAGTLIHVGSWGQGTRVTVSS |
| binds | SDAB22112-2-D08 (VHH, anti-Can f1 alpaca VHH) VHH: QVKLEESGGGLVQAGGSLRLSCVASGRTFSRWHTGWYRQAPGREREFVATLRASGGDTYYADSVKGRFTISRDNAKNTVYLQMNSLKPEDTAVYYCNVWANWGAPPSDFSSWGQGTQVTVSS |
| binds | SDAB22112-1-D12 (VHH, anti-Can f1 alpaca VHH) VHH: AVQLVDSGGGLVQAGGSLRLACAASGRTFDTYAVGWFRQAPGKERDVVASITWTSGSTWYADFVKGRFTISKDNAKNTVYLQMNNLSPEDTAVYYCGARNQIYTRWDSWGQGTQVTVSS |

Further lines, the binder ahead of its results:

| Binder | binding |
| --- | --- |
| SDAB22112-1-C9 (VHH, anti-Can f1 alpaca VHH) VHH: QLQLVESGGGLVQPGGSLRLSCVGSGFTFSLASMGWYRQAPGKEREWVASISSLDASTNYADSVKGRFTISRDNAKRMVYLQMNNLKSEDTAVYYCKAMNYWGKGTQVTVSS | binds |
| SDAB22112-1-C10 (VHH, anti-Can f1 alpaca VHH) VHH: QLQLVESGGGLVQPGGSLRLSCAASGFTFSSYSMSWYRQAPGKERELVATIDTDGRTNYADSVKGRFTISRDNAKNSVYLQMNSLKPEDTAVYYCNRRQLGVDYWGQGTQVTVSS | binds |
| SDAB22112-1-B6-B05 (VHH, anti-Can f1 alpaca VHH) VHH: QLQLVESGGGLVQPGGSLRLSCAASRSIFSSYVMAWYRRAPGKKRELVASIANVGSNTDYASFAKGRFTISRDDDKSRDNDKITVYLQMNSLNPEDTAVYYCNAWLGAGSDYWGQGTQVTVSS | binds |

Target: T1, recombinant His-tagged Fel D1 (cat)
Experiment: ELISA with known Fel D1 antibodies

| binding | Binder |
| --- | --- |
| binds | 370 VH + 378 VL (antibody, V domains shown) VH: EVQLVESGGGLAQPGGSLRLSCAASGFTFNNYAMTWVRQAPGKGLDWVSAISDSGRSTFSADSVKGRFTISRDNSKNTLYLQMDSLRAEDTALYYCAKHRNWNYPVFDYWGQGTLVTVSS VL: DIQLTQSPSFLSASVGDRVTITCWASQGISSYLAWYQQKPGKAPKLLIYSASTLQSGVPSRFSGSGSGTEFTLTISSLQPEDFATYYCQQLNSYPFTFGPGTKVDIK |
